Measurements as given in publication PMC7868569.
These are yes or no findings as the source states them, for the method shown. In cells and extracts the contact can be indirect. Some binding calls cover weakened binding; strength is not graded here. For some of these results: Sequences can lack the tags named with a protein.

Sequences of proteins named here, by UniProt entry; tags and fusion partners are left off.
UniProt P63158: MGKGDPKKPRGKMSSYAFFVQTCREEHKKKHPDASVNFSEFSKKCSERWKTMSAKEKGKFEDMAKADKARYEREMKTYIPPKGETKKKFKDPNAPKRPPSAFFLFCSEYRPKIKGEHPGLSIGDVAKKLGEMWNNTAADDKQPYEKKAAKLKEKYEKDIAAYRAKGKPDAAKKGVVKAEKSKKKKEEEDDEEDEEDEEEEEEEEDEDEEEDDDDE
UniProt Q04207: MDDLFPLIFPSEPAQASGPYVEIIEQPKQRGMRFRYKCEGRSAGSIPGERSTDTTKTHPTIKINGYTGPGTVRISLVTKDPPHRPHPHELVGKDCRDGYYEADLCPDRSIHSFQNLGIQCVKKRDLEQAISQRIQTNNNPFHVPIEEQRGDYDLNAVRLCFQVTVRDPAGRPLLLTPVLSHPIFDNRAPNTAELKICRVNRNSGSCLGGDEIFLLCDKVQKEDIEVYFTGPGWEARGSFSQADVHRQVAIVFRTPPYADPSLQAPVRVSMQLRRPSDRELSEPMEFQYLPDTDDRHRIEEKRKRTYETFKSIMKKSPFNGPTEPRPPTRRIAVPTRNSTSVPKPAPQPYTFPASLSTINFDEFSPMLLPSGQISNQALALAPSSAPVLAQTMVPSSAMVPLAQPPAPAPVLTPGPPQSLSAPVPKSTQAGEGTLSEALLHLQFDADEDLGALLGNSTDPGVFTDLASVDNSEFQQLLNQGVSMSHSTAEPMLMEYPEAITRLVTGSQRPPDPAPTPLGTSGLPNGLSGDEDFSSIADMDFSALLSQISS

How the values were obtained:
Experiment in all cases: co-IP; endogenous proteins in RAW264.7 cell extracts; IP with anti-HMGB1, anti-HDAC3 or anti-NF-κB p65 (CST, 1:500), IgG as parallel group, protein A/G-agarose, washed in PBS, Western blot; cells untreated, LPS (0.2 μg/ml), LPS plus 15 μM Chr; also after siNC or HDAC3 siRNA
[1] = target: T1, histone deacetylase 3 (HDAC3) (mouse (endogenous in RAW264.7)) (UniProt O88895)
T1 sequence: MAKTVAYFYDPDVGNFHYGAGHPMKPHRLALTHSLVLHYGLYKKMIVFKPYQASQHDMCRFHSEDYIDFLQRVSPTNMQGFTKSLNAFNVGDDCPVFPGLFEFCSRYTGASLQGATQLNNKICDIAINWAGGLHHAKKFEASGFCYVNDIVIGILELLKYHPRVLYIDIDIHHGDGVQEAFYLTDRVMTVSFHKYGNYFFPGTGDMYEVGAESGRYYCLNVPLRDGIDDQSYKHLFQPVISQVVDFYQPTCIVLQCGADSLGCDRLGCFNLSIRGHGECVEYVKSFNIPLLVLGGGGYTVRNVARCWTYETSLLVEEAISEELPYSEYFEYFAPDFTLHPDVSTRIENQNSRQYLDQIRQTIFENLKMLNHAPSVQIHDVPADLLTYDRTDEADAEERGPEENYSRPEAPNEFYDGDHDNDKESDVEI

[2] = target: high mobility group box 1 (HMGB1) protein (mouse (endogenous in RAW264.7)) (UniProt P63158)
[3] = target: nuclear transcription factor-kappa B p65 (NF-κB p65) (mouse (endogenous in RAW264.7)) (UniProt Q04207)

binding [1]	binding [2]	binding [3]	Substance
binds	binds		nuclear transcription factor-kappa B p65 (NF-κB p65) (from UniProt Q04207 1-549)
binds		binds	high mobility group box 1 (HMGB1) protein (from UniProt P63158 1-215)
